Measurements: article PMC10036336
Results are given in words; binding and its absence hold for the method and conditions named. A result given as binding can be weak or reduced; the word gives no strength.

The chains behind the UniProt entries cited, without tags or fusion partners. Where a name states a change or a piece, a line headed by the entry shows the natural chain unless it says otherwise.
UniProt Q61735: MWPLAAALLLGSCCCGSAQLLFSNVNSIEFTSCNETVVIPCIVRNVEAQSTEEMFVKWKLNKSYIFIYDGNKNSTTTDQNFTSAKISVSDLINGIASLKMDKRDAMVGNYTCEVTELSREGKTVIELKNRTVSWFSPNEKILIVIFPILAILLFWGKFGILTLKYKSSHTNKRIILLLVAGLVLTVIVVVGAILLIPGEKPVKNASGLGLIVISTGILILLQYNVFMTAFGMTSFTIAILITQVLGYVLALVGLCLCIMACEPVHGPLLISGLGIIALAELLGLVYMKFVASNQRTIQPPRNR

Biological target: CD47 protein (recombinant) (not stated (recombinant mouse and human CD47 bought)) (UniProt Q61735)
Test: far-Western, overlay or dot blot; CD47 protein adsorbed onto a nitrocellulose membrane; bacterial lysates of Fe-Bac-HlpA/CD47nb-BLPs after AMF treatment (310 kHz and 23.8 kA/m) added; bound CD47nb detected with an anti-Myc tag antibody; excess anti-CD47 antibodies as competitor, IgG as its negative control; only the target purified

binding: binds
B1: anti-CD47 nanobody (CD47nb) (VHH)
VHH: QVQLVESGGGLVEPGGSLRLSCAASGIIFKINDMGWYRQAPGKRREWVAASTGGDEAIYRDSVKDRFTISRDAKNSVFLQMNSLKPEDTAVYYCTAVISTDRDGTEWRRYWGQGTQVTVSS
